These are yes or no findings as the source states them, for the method shown. In cells and extracts the contact can be indirect. Some entries that bind do so weakly or less than the wild type.

The chains behind the UniProt entries cited, without tags or fusion partners.
UniProt P61168: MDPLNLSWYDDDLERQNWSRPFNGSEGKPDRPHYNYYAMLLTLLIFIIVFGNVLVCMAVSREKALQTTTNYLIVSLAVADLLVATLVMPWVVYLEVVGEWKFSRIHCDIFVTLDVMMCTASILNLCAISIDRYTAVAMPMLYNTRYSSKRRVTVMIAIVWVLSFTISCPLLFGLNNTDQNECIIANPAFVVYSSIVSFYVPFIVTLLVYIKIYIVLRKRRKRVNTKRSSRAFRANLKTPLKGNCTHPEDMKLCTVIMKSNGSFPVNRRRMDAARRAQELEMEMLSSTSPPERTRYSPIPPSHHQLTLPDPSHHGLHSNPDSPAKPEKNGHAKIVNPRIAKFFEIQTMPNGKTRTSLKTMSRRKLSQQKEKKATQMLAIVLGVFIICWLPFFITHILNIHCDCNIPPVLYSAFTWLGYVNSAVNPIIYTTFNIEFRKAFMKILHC
UniProt Q91YI4: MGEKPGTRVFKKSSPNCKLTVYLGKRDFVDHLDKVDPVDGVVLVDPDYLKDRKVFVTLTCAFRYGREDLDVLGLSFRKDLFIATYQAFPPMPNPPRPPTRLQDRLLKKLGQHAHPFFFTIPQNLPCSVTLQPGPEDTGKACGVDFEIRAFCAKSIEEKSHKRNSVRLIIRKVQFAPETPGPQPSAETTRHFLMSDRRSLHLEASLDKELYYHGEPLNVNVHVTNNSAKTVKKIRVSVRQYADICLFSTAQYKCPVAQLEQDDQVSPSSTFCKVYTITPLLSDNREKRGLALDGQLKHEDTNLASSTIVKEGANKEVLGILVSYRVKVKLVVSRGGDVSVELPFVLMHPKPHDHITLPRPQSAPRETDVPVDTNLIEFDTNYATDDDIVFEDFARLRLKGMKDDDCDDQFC

The values that follow come from article PMC7890184.

The assay has as its target dopamine D2 receptor (mouse (endogenous in nucleus accumbens)) (UniProt P61168). As to the kind of experiment: co-IP; Dynabeads Protein G kit on protein extracts of pooled nucleus accumbens punches of wt and ob/ob mice (n = 8 mice/genotype); blots for D2R and β-arrestin2, β-arrestin2 band normalised to D2R; precipitating antibody not stated; mice treated beforehand with vehicle, OX-A, SB-334867, SB-334867 then OX-A, leptin or L741.

For the substance β-arrestin2 (from UniProt Q91YI4 1-410), the binding result is “binds”.
